These are yes or no findings as the source states them, for the method shown. Some binding calls cover weakened binding; strength is not graded here.
Legend:
CD47-ECD [1] = target: CD47-ECD (UniProt Q08722); test: SPR sensorgram (FIG. 6)
CD47-ECD [2] = target: CD47-ECD (UniProt Q08722); test: SPR (Biacore T100), CD47-ECD injected over construct bound to immobilized Cetuximab
CD47-ECD [3] = target: CD47-ECD (UniProt Q08722); test: SPR sensorgram (FIG. 7B); complex of EGFR, Cetuximab, construct SEQ ID NO: 66 and CD47
CD47-ECD [4] = target: CD47-ECD (UniProt Q08722); test: SPR (Biacore T100), CD47-ECD at 100 nM over construct bound to Cetuximab on immobilized hrEGFR-Fc

Sequences of proteins named here, by UniProt entry; tags and fusion partners are left off. Residues count along the entry.
UniProt Q08722, residues 19-141: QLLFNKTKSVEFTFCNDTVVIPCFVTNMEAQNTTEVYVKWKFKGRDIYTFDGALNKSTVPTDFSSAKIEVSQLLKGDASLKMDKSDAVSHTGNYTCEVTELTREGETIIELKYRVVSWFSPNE

Measured: binding

B1: SIRP-α variant construct (SEQ ID NO: 66) (protein)
chain: CQFDLSTRRLKCGGGGSGGGGSGGGGSGGGGSEEELQIIQPDKSVLVAAGETATLRCTITSLFPVGPIQWFRGAGPGRVLIYNQRQGPFPRVTTVSDTTKRNNMDFSIRIGNITPADAGTYYCIKFRKGSPDDVEFKSGAGTELSVRAKPSGGGGSGGGGSGGGGSGGGGSCQFDLSTRRLKC
binds: all assays above

Reference: patent US20250011737A1
